The target in the assay is hBAFF-R-hFc-His fusion protein (human) (UniProt Q96RJ3). In words: yeast display, off-rate challenge with non-biotinylated hBAFF-R-hFc-His; bound before the challenge.

Sequences of proteins named here, by UniProt entry; tags and fusion partners are left off. A change or cut given only in a name is not applied to a line headed by its entry.
UniProt Q96RJ3: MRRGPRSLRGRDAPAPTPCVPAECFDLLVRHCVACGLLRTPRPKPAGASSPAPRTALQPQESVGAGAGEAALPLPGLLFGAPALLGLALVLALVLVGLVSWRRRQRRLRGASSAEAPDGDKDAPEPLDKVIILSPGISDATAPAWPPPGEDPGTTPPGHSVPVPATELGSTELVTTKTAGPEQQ

No constants are given. Whether binding was seen depends on the method and setting. Some entries that bind do so weakly or less than the wild type.

B1: ianalumab-based scFv benchmark control displayed on yeast (scFv, V domains shown)
VH: QVQLQQSGPGLVKPSQTLSLTCAISGDSVSSNSAAWGWIRQSPGRGLEWLGRIYYRSKWYNSYAVSVKSRITINPDTSKNQFSLQLNSVTPEDTAVYYCARYQWVPKIGVFDSWGQGTLVTVSS
VL: DIVLTQSPATLSLSPGERATLSCRASQFILPEYLSWYQQKPGQAPRLLIYGSSSRATGVPARFSGSGSGTDFTLTISSLEPEDFAVYYCQQFYSSPLTFGQGTKVEIK
With B1, the binding result is “binds”.

For the origin of these results see patent US20240270861A1.
